# Results of single-concentration screens

The chains behind the UniProt entries cited, without tags or fusion partners. Residues count along the entry.
UniProt P9WPC5, whole entry: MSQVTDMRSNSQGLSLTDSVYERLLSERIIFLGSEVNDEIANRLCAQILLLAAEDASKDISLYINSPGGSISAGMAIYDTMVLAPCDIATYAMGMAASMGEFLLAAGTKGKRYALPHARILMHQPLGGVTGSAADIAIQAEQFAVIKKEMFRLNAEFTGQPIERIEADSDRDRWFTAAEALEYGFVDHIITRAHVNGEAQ
UniProt P9WPC3, whole entry partner: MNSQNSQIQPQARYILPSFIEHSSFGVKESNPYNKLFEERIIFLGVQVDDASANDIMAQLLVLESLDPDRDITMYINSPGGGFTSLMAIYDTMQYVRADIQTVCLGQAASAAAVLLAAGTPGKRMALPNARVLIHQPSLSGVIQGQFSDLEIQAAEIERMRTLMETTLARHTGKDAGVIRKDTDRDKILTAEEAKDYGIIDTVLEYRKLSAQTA
UniProt I6X8D2, whole entry: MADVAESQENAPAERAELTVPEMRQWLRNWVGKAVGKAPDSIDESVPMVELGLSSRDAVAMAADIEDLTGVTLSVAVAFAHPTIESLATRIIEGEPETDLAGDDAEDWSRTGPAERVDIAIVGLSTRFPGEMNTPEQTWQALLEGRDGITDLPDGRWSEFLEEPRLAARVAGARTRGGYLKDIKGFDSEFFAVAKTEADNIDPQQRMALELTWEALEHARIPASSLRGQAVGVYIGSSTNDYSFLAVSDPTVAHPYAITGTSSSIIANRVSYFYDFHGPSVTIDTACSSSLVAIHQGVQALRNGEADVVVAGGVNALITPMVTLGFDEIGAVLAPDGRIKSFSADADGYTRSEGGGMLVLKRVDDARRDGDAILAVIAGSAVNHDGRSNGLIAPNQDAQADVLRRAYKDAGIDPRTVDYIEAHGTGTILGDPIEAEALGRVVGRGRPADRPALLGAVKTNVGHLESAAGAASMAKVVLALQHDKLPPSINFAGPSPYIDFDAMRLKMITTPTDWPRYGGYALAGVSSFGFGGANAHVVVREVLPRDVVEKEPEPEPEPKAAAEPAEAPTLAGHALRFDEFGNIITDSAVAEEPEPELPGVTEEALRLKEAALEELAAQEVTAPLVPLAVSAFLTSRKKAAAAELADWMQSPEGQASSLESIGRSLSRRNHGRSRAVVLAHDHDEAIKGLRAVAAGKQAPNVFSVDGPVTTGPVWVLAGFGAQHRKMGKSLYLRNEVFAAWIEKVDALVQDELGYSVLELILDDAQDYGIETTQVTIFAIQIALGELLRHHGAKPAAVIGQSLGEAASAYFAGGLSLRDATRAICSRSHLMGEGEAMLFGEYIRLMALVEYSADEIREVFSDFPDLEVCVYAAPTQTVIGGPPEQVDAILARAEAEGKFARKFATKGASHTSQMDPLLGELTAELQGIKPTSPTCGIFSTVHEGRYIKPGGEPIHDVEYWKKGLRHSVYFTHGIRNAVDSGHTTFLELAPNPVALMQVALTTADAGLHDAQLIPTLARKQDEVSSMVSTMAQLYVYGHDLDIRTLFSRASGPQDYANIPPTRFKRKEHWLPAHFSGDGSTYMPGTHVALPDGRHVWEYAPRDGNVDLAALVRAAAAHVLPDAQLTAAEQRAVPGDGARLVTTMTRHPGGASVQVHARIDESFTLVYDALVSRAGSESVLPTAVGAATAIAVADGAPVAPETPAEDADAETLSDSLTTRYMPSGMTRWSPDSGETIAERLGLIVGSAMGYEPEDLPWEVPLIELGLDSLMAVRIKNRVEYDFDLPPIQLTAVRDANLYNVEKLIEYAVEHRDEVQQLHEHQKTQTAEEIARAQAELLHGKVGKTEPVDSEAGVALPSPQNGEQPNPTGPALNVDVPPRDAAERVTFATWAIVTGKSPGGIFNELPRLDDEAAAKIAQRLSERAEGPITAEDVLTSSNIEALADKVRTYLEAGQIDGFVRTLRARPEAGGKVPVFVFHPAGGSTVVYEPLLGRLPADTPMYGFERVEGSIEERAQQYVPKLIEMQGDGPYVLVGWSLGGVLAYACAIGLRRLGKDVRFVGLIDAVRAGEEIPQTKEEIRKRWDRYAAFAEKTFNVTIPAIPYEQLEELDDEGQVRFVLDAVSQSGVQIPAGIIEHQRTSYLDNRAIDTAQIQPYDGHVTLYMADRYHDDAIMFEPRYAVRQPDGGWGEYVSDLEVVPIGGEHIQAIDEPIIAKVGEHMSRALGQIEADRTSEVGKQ
UniProt P9WNZ1, whole entry: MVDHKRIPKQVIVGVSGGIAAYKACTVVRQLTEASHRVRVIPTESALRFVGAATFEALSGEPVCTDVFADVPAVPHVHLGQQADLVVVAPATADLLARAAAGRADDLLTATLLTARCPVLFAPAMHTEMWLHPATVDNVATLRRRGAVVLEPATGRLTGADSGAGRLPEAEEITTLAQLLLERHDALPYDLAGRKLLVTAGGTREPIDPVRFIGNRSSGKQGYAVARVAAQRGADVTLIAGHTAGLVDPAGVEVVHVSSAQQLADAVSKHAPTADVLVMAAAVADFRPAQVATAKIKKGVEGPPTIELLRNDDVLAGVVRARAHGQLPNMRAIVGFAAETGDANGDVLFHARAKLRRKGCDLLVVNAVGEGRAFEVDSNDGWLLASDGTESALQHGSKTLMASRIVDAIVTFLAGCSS
UniProt A4I591, 1-473: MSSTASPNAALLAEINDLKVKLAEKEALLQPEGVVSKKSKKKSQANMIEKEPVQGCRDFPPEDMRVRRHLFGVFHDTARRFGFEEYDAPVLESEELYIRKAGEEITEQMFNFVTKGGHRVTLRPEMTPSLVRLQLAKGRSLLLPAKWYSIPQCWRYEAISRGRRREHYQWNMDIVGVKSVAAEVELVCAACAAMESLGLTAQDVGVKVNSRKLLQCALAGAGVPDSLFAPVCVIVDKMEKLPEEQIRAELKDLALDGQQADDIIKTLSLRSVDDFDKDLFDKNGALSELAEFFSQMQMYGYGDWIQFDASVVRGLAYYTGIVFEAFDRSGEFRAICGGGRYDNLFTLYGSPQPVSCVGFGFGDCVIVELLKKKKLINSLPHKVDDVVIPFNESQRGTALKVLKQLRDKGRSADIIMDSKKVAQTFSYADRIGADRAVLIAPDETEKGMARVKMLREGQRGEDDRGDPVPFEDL
UniProt Q4DA54, 1-478: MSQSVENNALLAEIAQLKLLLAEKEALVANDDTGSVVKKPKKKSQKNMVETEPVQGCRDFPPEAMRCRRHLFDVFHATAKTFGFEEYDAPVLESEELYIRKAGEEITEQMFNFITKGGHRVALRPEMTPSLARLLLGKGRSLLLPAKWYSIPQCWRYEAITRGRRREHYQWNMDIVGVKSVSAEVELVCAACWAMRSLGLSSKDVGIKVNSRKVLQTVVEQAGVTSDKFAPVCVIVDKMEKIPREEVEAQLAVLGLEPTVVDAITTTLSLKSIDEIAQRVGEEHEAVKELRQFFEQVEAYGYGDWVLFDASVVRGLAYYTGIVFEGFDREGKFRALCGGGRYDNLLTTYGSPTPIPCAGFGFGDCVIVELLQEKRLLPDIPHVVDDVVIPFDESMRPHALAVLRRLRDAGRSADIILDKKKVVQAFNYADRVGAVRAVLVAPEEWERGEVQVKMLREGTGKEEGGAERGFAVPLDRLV

ClpP1P2: 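ClpP1P2, Mycobacterium tuberculosis (UniProt P9WPC5 and UniProt P9WPC3). Protease assay of ClpP1P2, read by the AMC dye that it sets free. Tested at 50 µM. Higher reads as stronger inhibition, judged from the few compounds that gave an IC50. Most other retested compounds had strongly negative values. Size under these conditions: about 69,000 compounds, about 10 of them at 50% or above in at least one test.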
Pks13 thioesterase: 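Polyketide synthase Pks13, Mycobacterium tuberculosis (UniProt I6X8D2). Enzyme assay of the thioesterase domain of polyketide synthase 13; the read-out is not stated. Compounds at 30 µM. The record gives no direction; the compounds picked for IC50 retests had high values, so higher reads as stronger inhibition. Of about 67,000 compounds tested this way, about 300 (0.46%) reached 50% or more in at least one test.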
CoaBC: 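Coenzyme A biosynthesis protein CoaBC, Mycobacterium tuberculosis (UniProt P9WNZ1). Enzyme assay of CoaBC with a phosphate dye (Biomol Green) read at 650 nm. Compounds at 30 µM. Direction is inferred from only a few compounds that gave an IC50; most scored high, so higher reads as stronger inhibition. Most strong results did not repeat in a second test. Size under these conditions: about 67,000 compounds, about 40 of them at 50% or above in at least one test.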
LiHisRS: 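Enzyme assay of histidyl-tRNA synthetase; the read-out is not stated. Target: Histidine-tRNA ligase, Leishmania infantum (UniProt A4I591). Compounds at 30 µM. The record gives no direction; compounds that gave an IC50 in retests scored well above the rest, so higher reads as stronger inhibition. The assay is labelled LdHisRS but filed under L. infantum. Of about 69,000 compounds tested this way, about 410 (0.6%) reached 50% or more in at least one test.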
TcHisRS: 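Enzyme assay of histidyl-tRNA synthetase; the read-out is not stated. Target: Histidine-tRNA ligase, Trypanosoma cruzi CL Brener (UniProt Q4DA54). Compounds at 30 µM. Higher reads as stronger inhibition (inferred: compounds with an IC50 in retests scored well above the rest). Size under these conditions: about 69,000 compounds, about 31 of them at 50% or above in at least one test.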

The filed quantity is “Percent Effect” (%).
The controls that fix the scale are not given in the record; negative values are as filed.
This is an unselected part of the compounds tested.
A dash means the value is not listed here; it may have been measured.

compound | ClpP1P2 | Pks13 thioesterase | CoaBC | LiHisRS | TcHisRS
Cc1nn(C)c(N(C)C)c1CNC1CCOc2ccccc21 (centres unmarked) | -18.27 | 5.225 | 8.238 | 21.43 | 10.06
CSc1ccc(-c2nc(CN3C[C@@H](C)NC[C@@H]3C)c(C)o2)cc1 | -6.782 | -26.5 | 2.408 | 16.46 | 9.052
O=C(NCc1cccs1)[C@@H]1CC[C@@H]2[C@@H](CCN2CC2CCC2)O1 | -1.417 | - | 9.023 | 17.95 | 7.317
Cc1ccc(N2CCC3(CCN(C(=O)c4ccnnc4)CC3)CC2)nn1 | 7.202 | 3.311 | 4.883 | 9.735 | -0.8
CS(=O)(=O)NCC1CCCCN1C(=O)c1ccsc1 (centres unmarked) | -3.889 | -17.52 | 6.818 | 5.479 | 2.703
CN(CCCc1cnn(C)c1)C(=O)Nc1cccc2[nH]nnc12 | 7.493 | -81.67 | -0.8696 | 9.948 | 6.952
CCOCC(=O)N1CCC(c2nccn2C)CC1 | 11.15 | -9.375 | -10.08 | 7.895 | -0.5587
COc1ccc(C(=O)NC2CC2)c(OC2CCN(CC3CC3)CC2)c1 | -0.2173 | -31.79 | 2.314 | 9.375 | 6.704
CN(C)CCOc1ccccc1N1CCN(C(=O)c2ccoc2)CC1 | -1.182 | -26.29 | - | 26.76 | -0.6369
CN1CCC/C1=N\S(=O)(=O)c1ccc(NC(=O)CCc2cccs2)cc1 | 3.929 | - | 1.054 | 25 | 5.703
CCCN(CC1COc2ccccc2O1)C(=O)CCN1C(=O)CCC1=O (centres unmarked) | 10.75 | -7.758 | 2.561 | 10.99 | 7.831
CC(=O)c1cccc(S(=O)(=O)NCCNC(=O)c2snnc2C)c1 | -5.75 | -20.55 | -4.248 | 21.24 | -17.54
Cc1cc(C(=O)N2CCS(=O)(=O)CC2)c(C)o1 | 0.456 | -2.578 | 1.687 | 18.68 | 5.941
Cc1ccc(C2CCCCCN2CCNS(C)(=O)=O)o1 (centres unmarked) | -17.73 | 3.802 | 1.951 | 19.2 | 0.9804
Cc1nc(N)sc1C(=O)N1CCCC(COc2ccc(F)cc2)C1 (centres unmarked) | -8.369 | 6.094 | -0.4673 | 11.84 | 7.609
Cc1nc2ccn(C(C)C)c(=O)c2cc1C(=O)O | -1.975 | -6.833 | 5.051 | 13.16 | 1.754
CCOc1ccc2[nH]c(=O)c(CN3CCC(n4cnnc4)CC3)cc2c1 | -131.1 | -16.16 | 5.584 | -34.12 | 3.139
NC(=O)CCNCc1c(Cl)cccc1N1CCCC1 | 2.306 | -3.642 | -4.245 | 9.89 | 2.062
CN(CCc1cn[nH]c1)Cc1nc(Cc2cccc(F)c2)no1 | -13.18 | -19.5 | 2.046 | 14.75 | 3.03
CN(Cc1ccc([S+](C)[O-])cc1)c1cncc(Cl)n1 (centres unmarked) | -20.31 | 9.638 | 5.122 | 14.4 | 1.961
O=C(O)c1cn(CC2CCCN(c3nccc4occc34)C2)nn1 (centres unmarked) | 10.3 | -17.86 | 3.478 | 16.23 | 8.021
c1cncc(-c2noc(CN3CCCC(Cn4cncn4)C3)n2)c1 (centres unmarked) | -10.14 | 1.091 | 0.7874 | 10.17 | 4.571
CCOC1CCN(C(=O)c2ccc(-n3ncc(C#N)c3N)cc2)CC1 | 2.032 | -17.89 | - | 28.57 | 7.792
Cc1ccc(C)c(S(=O)(=O)N2CCN(C)C3(CCC(=O)N(C)CC3)C2)c1 (centres unmarked) | -2.765 | -21.1 | 4.455 | 18 | 7.229
COCCN1CCCC1c1ccnc(-c2ccccc2)n1 (centres unmarked) | -20.35 | 4.745 | 4.038 | 14.08 | 22.31
Cn1cc(CN2CCC[C@]3(C[C@@H](Oc4ccccn4)CO3)C2)cn1 | -6.734 | 20.58 | 4.727 | 13.46 | 8.38
CS(=O)(=O)N1CCc2sc(C(=O)NCc3ccccc3)cc21 | -15.82 | -16.99 | 1.356 | -1.389 | 0.9524
O=C([C@H]1CCCO1)N1CCN(Cc2cccnc2)c2ncccc2C1 | -16.33 | -1.937 | -8.755 | -4.167 | 2.857
Cc1cc(C)cc(N(CCC#N)C(=O)CN2CCCC2c2cccs2)c1 (centres unmarked) | -1.908 | -8.21 | 0 | 12.7 | 0.5128
COCC(O)CN1CCC(=O)N(CC=C(C)C)Cc2ccccc21 (centres unmarked) | -9.132 | - | 0 | 12.24 | 13.48
CCn1ccnc1CN1CCN(c2ccc3nnc(C)n3n2)CC1 | -14.06 | -24.15 | 6.09 | 23.29 | 5.911
Nc1ccnc(N2CCCC(CO)(Cc3cccc(Cl)c3)C2)n1 (centres unmarked) | -21.9 | -0.3421 | 0.2538 | 20 | 8.52
CC(COc1ccc(F)cc1F)NC(=O)NCCN1CCOCC1 (centres unmarked) | 1.574 | -38.81 | 7.422 | 20 | -11.96
CN(C)CC(=O)N1CCc2sc(C(=O)NCC3CC3)cc21 | -5.193 | 7.653 | -0.2506 | 28.21 | 7.317

From ChEMBL document CHEMBL3988442, “University of Dundee, Small-Polar-MMV Screening Library” (2021).